# About 18,000 (4.4%) of roughly 410,000 compounds were called active. The shares of active, inactive and inconclusive entries below differ from those in the screen. Rule as the data show it: active = activity change below about -60%; inconclusive = no clear call, values can overlap the other calls; inactive = above about -39%.
# Test: qHTS Assay for inhibitors of the human cytomegalovirus (HCMV)
# Settings: HFF cells, HCMV-luciferase reporter, 72 h; at 57.5 µM; stronger effect = lower value
# How it was run: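 Inhibition of viral replication was scored as loss of reporter luminescence in HFFs infected with HCMV-luciferase (MOI 1 PFU/cell) for 72 h; compounds tested at 2 doses, normalized to buffer and Salinomycin controls.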
# % is scaled to controls: 0 for no effect and ±100 for the full control effect.
row,SMILES,"activity change, negative = inhibition"
1,COc1ccc(OC)c(NS(=O)(=O)c2ccc(NC(=O)C3COc4ccccc4O3)cc2)c1 (stereo not given),inconclusive: -41.6%
2,Cc1c(C(=O)Nc2cc(F)ccc2F)sc2nc(-c3ccc(F)cc3)cn12,inconclusive: -55.3%
3,CC(=O)Nc1ccc(-c2csc(NC(=O)CCNC(=O)c3ccco3)n2)cc1,inactive: 36%
4,COc1cccc(-n2c(/C=C/c3ccccn3)nc3ccccc3c2=O)c1,inconclusive: -56.9%
5,CCN(C(=O)CN1C(=S)NC(C)(C)CC1C)c1ccc(C)c(C)c1 (stereo not given),inconclusive: -49%
6,CN1C(=O)/C(=C/c2ccccc2Cl)Sc2ccc(C(=O)N3CCCC3)cc21,inconclusive: -56%
7,COc1ccc(NC(=O)c2sccc2OS(=O)(=O)N(C)C)cc1,inconclusive: -46.3%
8,Cc1cc(N2CCCCC2)nc(SCC(=O)c2ccccc2)n1,inactive: 55.4%
9,Cc1ccc(Nc2ccc(C(N)=O)cc2[N+](=O)[O-])cc1C,inconclusive: -55.7%
10,Cn1c(=O)c2cc(NC(=O)Cc3ccccc3F)ccc2n1-c1ccc(C(C)(C)C)cc1,inactive: -31%
11,CCCc1cc(C(=O)OCC(=O)NCCc2ccccc2)sc1C,inconclusive: -42.7%
12,COC(=O)COc1nsnc1N1CCOCC1,inactive: -17.9%
13,O=C(CSc1nc(-c2cccc(F)c2)[nH]c1-c1ccccc1)Nc1ccc2c(c1)OCO2,active: -87.5%
14,O=C(COc1ccc2c(c1)oc(=O)c1ccccc12)NCC1CCC(C(=O)O)CC1 (stereo not given),inconclusive: -53.9%
15,COc1ccc(CSc2nnc(-c3ccncc3)n2N)cc1,inconclusive: -48%
16,O=S1(=O)CC(N2CCN(CC3CC3)CC2)CN1Cc1ccccc1 (stereo not given),inactive: -11.8%
17,CCCC(C(=O)NC(C)(C)C)N(C(=O)c1snc(C(N)=O)c1N)c1ccc2c(c1)OCCO2 (stereo not given),inconclusive: -50.4%
18,Brc1ccc(CN2CCCCCC2)cc1,inconclusive: -57.7%
19,O=C(Cn1cnc([N+](=O)[O-])n1)N/N=C/c1cccc(Cl)c1,inconclusive: -41.3%
20,CN1/C(=C\C(=O)c2cncc(Br)c2)C(C)(C)c2ccccc21,active: -72.7%
21,COc1cccc(NC(=O)N(C)C[C@@H]2OCc3cn(nn3)CCCC(=O)N([C@H](C)CO)C[C@H]2C)c1,inactive: 7.27%
22,O=C1CSC(=NC2CCCCC2)N1,inactive: -13.8%
23,COc1ccc(NC(=O)C2=C(C)Nc3nc(SCc4ccc(Cl)cc4)nn3C2c2cccc(OC)c2OC)cc1 (stereo not given),inconclusive: -46.3%
24,Cc1cccc(NC(=S)NCCc2ccccc2)n1,active: -72.4%
25,Cc1sc2nc(C3CC3)nc(SCC(=O)N3CC(=O)Nc4ccccc43)c2c1C,inconclusive: -44.2%
26,CC(C)N1CCN(Cc2ccc(OCc3ccccc3)cc2)CC1CCO (stereo not given),inconclusive: -55.2%
27,COC[C@H]1OC(=O)c2coc3c2[C@@]1(C)C1=C(C3=O)[C@@H]2CCC(=O)[C@@]2(C)C[C@H]1OC(C)=O,inconclusive: -58.2%
28,COc1ccc(N(C)C(=O)Cn2cc(S(=O)(=O)N3CCN(c4ccccc4F)CC3)c3ccccc3c2=O)c(OC)c1,inactive: 0.115%

# Structural class: those above containing bromine
row,SMILES,"activity change, negative = inhibition"
18,Brc1ccc(CN2CCCCCC2)cc1,inconclusive: -57.7%
20,CN1/C(=C\C(=O)c2cncc(Br)c2)C(C)(C)c2ccccc21,active: -72.7%

# (more compounds)

row,SMILES,"activity change, negative = inhibition"
1,COC(=O)c1ccc(=O)n(Cc2ccco2)c1,inconclusive: -49.8%
2,O=C(c1ccccc1[N+](=O)[O-])N1CC2C3C=CC(C3)C2C1 (stereo not given),inconclusive: -41.5%
3,COc1cccc(CC(=O)Nc2nc(-c3cccnc3)cs2)c1,active: -62%
4,Cc1cccc(-n2c(=O)c3ccccc3n(Cc3ccc(F)cc3)c2=O)c1,inconclusive: -53.3%
5,O=C(Nc1cccc(Oc2c(F)c(F)c(F)c(F)c2F)c1)N1C[C@@H]2C[C@@H](C1)c1cccc(=O)n1C2,inconclusive: -45.8%
6,COc1ccc(C(=O)OCC(=O)Nc2ccc3c(c2)OCCO3)c(OC)c1,inconclusive: -49.8%
7,O=C(NCCc1ccc(F)cc1)C(=O)NCC1CCCN1S(=O)(=O)c1ccccc1 (stereo not given),inactive: -34.1%
8,Cn1c(SCc2ccccc2Cl)nnc1-c1cnccn1,inactive: 15.9%
9,O=C(Cc1ccccc1[N+](=O)[O-])N1CCN(Cc2ccc3c(c2)OCO3)CC1,inconclusive: -42.5%
10,COc1ccc(N(C)S(=O)(=O)c2cccc(C(=O)Nc3ccc(-n4cnnn4)cc3)c2)cc1,inconclusive: -50.2%
11,CC1CCN(c2ccc(-c3cccc(NS(=O)(=O)c4ccc(F)cc4F)c3)nn2)CC1,active: -99.8%
12,C#CCn1c(O)c(N=NC(=O)C(O)c2ccccc2)c2ccccc21 (stereo not given),inactive: 47.7%
13,COc1ccc(CCNC(=O)C(=O)NCC2OCCN2S(=O)(=O)c2ccc3c(c2)OCCO3)cc1OC (stereo not given),inactive: -15.8%
14,O=C1ON(Cc2ccccc2)C(c2ccccc2)N1c1ccccc1 (stereo not given),inactive: 18.5%
15,[O-]/[N+](=C/c1ccc(F)cc1)c1ccccc1,active: -79.9%
16,CN(C)C(=O)c1ccc(NC(=O)c2ccc(-c3ccc(Cl)cc3)o2)cc1,inconclusive: -49%
17,COc1cc(/C=N/n2cc(-c3ccccc3)[nH]c2=S)cc(OC)c1O,inactive: 14.3%
18,CC(=O)Nc1ccc(S(=O)(=O)N(C)CC(=O)OCC(=O)c2cc(C)n(-c3ccc4c(c3)OCO4)c2C)cc1,inactive: 26.5%
19,CC(=O)Nc1ccc(Nc2cc(C(C)C)nc3c(-c4ccccc4)c(C)nn23)cc1,inconclusive: -59.6%
20,CC(C)(C)N(Cc1ccccc1)C(=O)COC(=O)C1CCN(c2ccc(C(F)(F)F)cn2)CC1,inactive: 0%
21,O=C(CCCN1C(=O)c2ccccc2C1=O)Nc1c2c(nc3c1CCC3)CCC2,inactive: 66.2%
22,O=C1C(=C2SCCCS2)CC/C1=C\c1ccc(F)cc1,active: -91%
23,O=C(/C=C/c1ccc(Cl)cc1)NCc1cccs1,inactive: -9.75%
24,COc1cccc(Nc2nc(N)nc(CCl)n2)c1,active: -79.6%
25,N=c1n(Cc2ccc(Cl)cc2)c2ccccc2n1CC(O)c1ccco1 (stereo not given),inconclusive: -41.7%
26,CC1=NN(c2ccccc2)C(=O)/C1=C\C=C\c1ccccc1,active: -97.6%
27,O=C1N/C(=C/c2cccn2-c2ccccc2)C(=O)N1c1cccc(Cl)c1,inconclusive: -55%

# In another format: entries from further up.
row | SMILES | activity change, negative = inhibition
23 | COc1ccc(NC(=O)C2=C(C)Nc3nc(SCc4ccc(Cl)cc4)nn3C2c2cccc(OC)c2OC)cc1 (stereo not given) | inconclusive: -46.3%
4 | Cc1cccc(-n2c(=O)c3ccccc3n(Cc3ccc(F)cc3)c2=O)c1 | inconclusive: -53.3%
